Measurements taken from PMC12881369.

Protein sequences, listed by entry. Tags and fused reporters are not part of them. Residues count along the entry.
UniProt Q2UVX4, residues 23-1661: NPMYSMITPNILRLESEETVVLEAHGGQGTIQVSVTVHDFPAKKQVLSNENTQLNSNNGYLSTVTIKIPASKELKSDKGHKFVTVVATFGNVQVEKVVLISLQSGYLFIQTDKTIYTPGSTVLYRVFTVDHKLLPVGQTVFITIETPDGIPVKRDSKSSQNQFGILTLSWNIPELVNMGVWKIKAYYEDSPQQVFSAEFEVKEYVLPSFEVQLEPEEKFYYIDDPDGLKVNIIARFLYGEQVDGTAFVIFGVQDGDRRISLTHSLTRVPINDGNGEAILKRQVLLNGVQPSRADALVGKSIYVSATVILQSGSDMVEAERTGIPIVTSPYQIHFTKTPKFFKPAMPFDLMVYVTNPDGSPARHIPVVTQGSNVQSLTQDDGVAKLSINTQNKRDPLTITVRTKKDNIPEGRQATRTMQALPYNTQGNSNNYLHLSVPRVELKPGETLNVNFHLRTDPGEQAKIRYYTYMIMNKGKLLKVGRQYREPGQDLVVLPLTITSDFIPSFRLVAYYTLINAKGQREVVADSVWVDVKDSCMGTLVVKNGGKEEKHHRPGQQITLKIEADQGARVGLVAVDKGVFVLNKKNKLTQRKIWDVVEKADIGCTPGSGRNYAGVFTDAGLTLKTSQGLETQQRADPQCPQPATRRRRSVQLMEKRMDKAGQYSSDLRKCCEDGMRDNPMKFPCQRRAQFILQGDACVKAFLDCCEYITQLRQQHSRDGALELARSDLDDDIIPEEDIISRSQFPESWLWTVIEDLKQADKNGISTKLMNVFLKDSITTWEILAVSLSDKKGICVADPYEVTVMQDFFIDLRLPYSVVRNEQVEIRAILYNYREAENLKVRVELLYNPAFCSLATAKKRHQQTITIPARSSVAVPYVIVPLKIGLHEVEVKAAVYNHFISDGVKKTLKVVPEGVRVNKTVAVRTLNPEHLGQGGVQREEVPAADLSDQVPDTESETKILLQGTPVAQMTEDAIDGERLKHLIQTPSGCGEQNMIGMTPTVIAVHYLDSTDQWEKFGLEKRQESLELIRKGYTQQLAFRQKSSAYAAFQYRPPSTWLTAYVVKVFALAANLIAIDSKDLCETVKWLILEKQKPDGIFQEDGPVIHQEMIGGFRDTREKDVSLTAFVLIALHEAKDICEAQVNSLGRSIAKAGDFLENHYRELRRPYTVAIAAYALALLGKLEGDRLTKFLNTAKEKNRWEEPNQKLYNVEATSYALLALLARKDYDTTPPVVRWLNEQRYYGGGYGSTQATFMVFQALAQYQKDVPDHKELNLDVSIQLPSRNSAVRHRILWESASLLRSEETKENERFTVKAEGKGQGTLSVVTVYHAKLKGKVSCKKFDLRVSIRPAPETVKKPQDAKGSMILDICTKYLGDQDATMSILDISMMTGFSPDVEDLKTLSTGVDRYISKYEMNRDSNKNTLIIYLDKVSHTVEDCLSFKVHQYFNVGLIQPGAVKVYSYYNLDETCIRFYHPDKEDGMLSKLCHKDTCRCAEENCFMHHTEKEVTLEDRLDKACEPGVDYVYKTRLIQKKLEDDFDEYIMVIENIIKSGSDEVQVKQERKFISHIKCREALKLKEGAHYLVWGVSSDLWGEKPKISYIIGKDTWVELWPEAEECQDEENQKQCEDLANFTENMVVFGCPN
UniProt Q58D62, residues 19-387: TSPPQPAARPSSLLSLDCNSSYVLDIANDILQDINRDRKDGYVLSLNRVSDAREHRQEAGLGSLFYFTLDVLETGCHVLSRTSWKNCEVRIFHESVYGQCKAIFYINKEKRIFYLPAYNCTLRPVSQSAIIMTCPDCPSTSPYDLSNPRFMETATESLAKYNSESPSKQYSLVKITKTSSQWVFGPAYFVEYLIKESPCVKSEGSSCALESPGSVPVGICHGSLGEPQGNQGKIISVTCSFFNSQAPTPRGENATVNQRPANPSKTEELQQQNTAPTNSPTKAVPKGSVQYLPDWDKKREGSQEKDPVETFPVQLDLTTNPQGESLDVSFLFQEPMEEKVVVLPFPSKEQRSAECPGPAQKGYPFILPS

T1: FLAG-tagged Scube2 (signal sequence, cubulin (CUB) domain, epidermal growth factor (EGF)-like protein 2) (human) (UniProt Q9NQ36)
T1 sequence: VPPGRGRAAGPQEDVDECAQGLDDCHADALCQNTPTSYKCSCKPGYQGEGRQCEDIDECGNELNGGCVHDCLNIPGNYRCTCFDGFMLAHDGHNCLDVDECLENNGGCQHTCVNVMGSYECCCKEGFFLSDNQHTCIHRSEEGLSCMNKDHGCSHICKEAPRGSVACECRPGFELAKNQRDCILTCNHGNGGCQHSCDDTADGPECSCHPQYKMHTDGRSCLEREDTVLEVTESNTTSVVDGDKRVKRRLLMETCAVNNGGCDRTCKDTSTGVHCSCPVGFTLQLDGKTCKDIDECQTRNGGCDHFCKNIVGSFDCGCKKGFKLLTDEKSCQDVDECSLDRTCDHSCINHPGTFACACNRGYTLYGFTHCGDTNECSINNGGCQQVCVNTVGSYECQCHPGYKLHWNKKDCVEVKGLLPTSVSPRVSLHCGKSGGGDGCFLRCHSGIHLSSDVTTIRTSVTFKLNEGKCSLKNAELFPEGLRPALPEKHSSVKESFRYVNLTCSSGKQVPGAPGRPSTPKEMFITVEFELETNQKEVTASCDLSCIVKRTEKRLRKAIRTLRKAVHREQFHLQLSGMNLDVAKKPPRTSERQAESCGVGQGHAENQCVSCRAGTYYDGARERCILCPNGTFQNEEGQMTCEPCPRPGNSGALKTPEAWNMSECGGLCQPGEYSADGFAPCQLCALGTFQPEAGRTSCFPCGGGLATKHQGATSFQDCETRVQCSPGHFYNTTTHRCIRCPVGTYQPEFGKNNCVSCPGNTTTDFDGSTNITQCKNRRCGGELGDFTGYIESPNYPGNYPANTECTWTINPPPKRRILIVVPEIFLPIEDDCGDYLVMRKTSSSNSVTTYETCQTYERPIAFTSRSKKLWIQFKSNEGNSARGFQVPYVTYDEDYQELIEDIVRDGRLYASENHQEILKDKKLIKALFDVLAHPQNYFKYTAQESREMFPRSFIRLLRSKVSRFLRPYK


Each molecule was assayed against T1, FLAG-tagged Scube2 (signal sequence, cubulin (CUB) domain, epidermal growth factor (EGF)-like protein 2) (human) (assay: affinity purification with mass spectrometry; FLAG-tagged Scube2 expressed in serum-containing medium, bound to anti-FLAG M2-agarose beads overnight at 4 °C, washed with TBS, eluted with 0.1 M glycine HCl pH 3.5; search against human UniProt plus 199 fetal bovine serum sequences).

| Molecule | binding |
| --- | --- |
| plasminogen (bovine) | binds |
| complement C3 (from UniProt Q2UVX4 23-1661) | binds |
| fetuin-B (from UniProt Q58D62 19-387) | binds |
| α1-antiproteinase (protein, UniProt P34955 25-416) GVLQGHAVQETDDTSHQEAACHKIAPNLANFAFSIYHHLAHQSNTSNIFFSPVSIASAFAMLSLGAKGNTHTEILKGLGFNLTELAEAEIHKGFQHLLHTLNQPNHQLQLTTGNGLFINESAKLVDTFLEDVKNLYHSEAFSINFRDAEEAKKKINDYVEKGSHGKIVELVKVLDPNTVFALVNYISFKGKWEKPFEMKHTTERDFHVDEQTTVKVPMMNRLGMFDLHYCDKLASWVLLLDYVGNVTACFILPDLGKLQQLEDKLNNELLAKFLEKKYASSANLHLPKLSISETYDLKSVLGDVGITEVFSDRADLSGITKEQPLKVSKALHKAALTIDEKGTEAVGSTFLEAIPMSLPPDVEFNRPFLCILYDRNTKSPLFVGKVVNPTQA | binds |
| α2-antiplasmin (protein, UniProt P28800 41-492) AQQKLPPLSLLKLDNQEPGGQIAPKKAPEDCKLSPTPEQTRRLARAMMTFTTDLFSLVAQSSTRPNLILSPLSVALALSHLALGAQNQTLQRLKEVLHADSGPCLPHLLSRLCQDLGPGAFRLAARMYLQKGFPIKEDFLEQSEQLFGAKPMSLTGMKGEDLANINRWVKEATEGKIEDFLSDLPDDTVLLLLNAIHFQGFWRSKFDPNLTQRGAFHLDEQFTVPVDMMQALTYPLHWFLLEQPEIQVAHFPFKNNMSFVVLMPTRFEWNASQVLANLTWDILHQPSLSERPTKVQLPKLHLKYQLDLVATLSQLGLQELFQAPDLRGISDERLVVSSVQHQSALELSEAGVQAAAATSTAMSRMSLSSFIVNRPFLFFILEDSTSLPLFVGSVRNPNPGAQPERKEQQDSPDGKDSFQDHKGLPRGDKPFDPDLKLGPPSEEDYAQPSSPK | binds |
| α2-macroglobulin (protein, UniProt Q7SIH1 24-1510) SVSGKPQYMVLVPSLLHTETPEKGCLLLSHLNETVTVSASLESVRENRSLFTDVVAEKDLFHCVSFTLPRSPTSQEVMFLTIQVKGPTQEFKKRTTVLVKNEESLVFVQTDKPIYKPEQTVKFRIVLLDESFHPLNELVPLVYVEDPKGNRIAQWQNLEVENGLQQLTFPLSSEPFQGSYKVVVQKGSGGTAEHPFTVEEFVLPKFEVQVRMPKIITILEEEVQVSVCGLYTYGKPVPGRVTMNMCRKYRNPSNCYGEESNAVCEKFSGELNNEGCFSQQVNTKIFQLKRQEFEMKIEVEAKIQEEGTEVELTGKGATEITTTITKLSFVTVDSNLRRGIPFTGKVLLVDGKGVPMPNKVIFITANEANHNSNTTTDEHGLAQFSITTTKIKGTSLSIRVKYKDHSPCYGYQWLSEEHQDAYHSANLVFSRSNSFVYLEPLPRELPCGKTQTVQAHYVLKGQVLKDLKELVFYYLIMAKGGIVRSGTHTLPVEQGDMQGHFSMSVPVESDIAPVARLLIYAILPDGEVVGDSARYEIEHCLANKVGLNFSPGQSFPASQAHLRVTASPQSLCALRAVDQSVLLMRPEAELSAATVYNLLPVKDLSSFPSSVNQQEEDNEDCISHDNVYINGIMYFPVSNTNEKDMYSFLQDMGLKAFTNSKIHKPKICPQPEEHRIQHHTLLASPVRAEMGRNRDFVHFDDTSEPPTETVRKYFPETWIWDLVVVSSSGVHEVEVTVPDTITEWKAGALCLSRDTGLGLSPTASLRVFQPFFVELTMPYSVIRGEAFTLKATVLNYLPKCIRVSVQLEASPAFLAVPEKEQETYCICGNGRQTVSWAVTPKSLGNVNFTVSAEAVESQELCGSEVPVVPEHGRKDTIIKPLLVEPEGLEKEVIFNSLLCPSVDFVFLGAEDGGQVLRHFPPAAATDTAADAHDPARPGAKVSESLSLKLPPNVVEESARASFSVLGDILGSAMRNTQNLLQMPYGCGEQNMARFAPNIYVLDYLNETQQLTAELKSKAILYLNTGYQRQLLYKHFDGSYSTFGEHRGNSEGNTWLTAFVLKSFAQARGYIFIDEAHITEALTWLAQKQKSNGCFRSTGTLLNNAIKGGVDDEVTLSAYITIALLEMPLPVTHPVVRNALFCLDSAWKSAKEGSQGSHVYTKALLAYAFALAGNQERRTEVLTSLYEEAVKEDNTIHWTRPQKPRLLTEDIYQPRAPSAEVEMTAYVILAHVTAQPAPNPEDLKRATSIVKWISKQQNCQGGFSSTQDTVVALHALSRYGAATFTSARKAAQVTIQSSGTFSTKFQVENSNRLLLQQVSLPEVPGEYSMSVTGEGCVYLQTSLKYNILPKKDEFPFALEVQTLPQTCDGPKAHTSFQISLSVSYIGSRPASNMAIVDVKMVSGFIPLKPTVKMLERSNVSRTEVSNNHVLIYLDKVTNETLTLTFTVLQDIPVRDLKPAIVKVYDYYETDEFAVAEYSAPCSKDIGNA | binds |

These are yes or no findings as the source states them, for the method shown. Binding seen in cells or lysates may run through a third protein. Here binding means that the protein was enriched with, or labelled near, the bait; the list need not be complete. Tags and fused reporters may be left off the sequences shown.
